In this assay the test system is LLC1. The experiment in a line: MTT cell proliferation assay on LLC1. The assay is classed as cell-based. To be noted: Mus musculus. The procedure:
Non-small cell lung cancer (NSCLC) cell line (lewis lung carcinoma, LLC) expressing a particularly aggressive metastatic phenotype was used. Four HDAC inhibitors molecules were evaluated: Entinostat, Levetiracetatm, Vorinostat (Zolinga®) and valproic acid (VPA) (Depakine®), for the expression of Major Histocompatibility Complex (MHC) Class I and II using Flow cytometry analysis.
The half maximal inhibitory concentration (IC50) was first determined for each HDACi using an MTT cell proliferation assay. LLC1 was treated with an increasing dose of HDCAi and proliferation was estimated measuring the absorbance after the incorporation by the cell of MMT (3-(4,5-dimethylthiazol-2-yl)-2,5-diphenyl tetrazolium bromide) substrate. The IC50 (levels) for Vorinostat, Entinostat and Levetiracetam were between 2 and 4 μM and around 2 mM for valproic acid.
For orientation: Tetrazolium dyes change colour on reduction, which living cells bring about.

Consider one compound from patent US12599662B2, “Methods and compositions for treating cancers” (INSERM (INSTITUT NATIONAL DE LA SANTÉ ET DE LA RECHERCHE …, priority 2018, dated 2026).

A word on the IC50: it is the midpoint of a concentration-inhibition curve. Turning to `O=C(CCCCCCC(=O)Nc1ccccc1)NO` [Vorinostat, N-Hydroxy-N′-phenyloctanediamide], the IC50 lay in the range of 2 to 4 µM.
